From PMC11065315 come the findings set out here.

Results are given in words; binding and its absence hold for the method and conditions named. Binding can be weak; no strength is given.

The experiment addresses T1, eukaryotic initiation factor 4B (eIF4B), wheat (wheat) (UniProt Q9AUJ7).
T1 sequence: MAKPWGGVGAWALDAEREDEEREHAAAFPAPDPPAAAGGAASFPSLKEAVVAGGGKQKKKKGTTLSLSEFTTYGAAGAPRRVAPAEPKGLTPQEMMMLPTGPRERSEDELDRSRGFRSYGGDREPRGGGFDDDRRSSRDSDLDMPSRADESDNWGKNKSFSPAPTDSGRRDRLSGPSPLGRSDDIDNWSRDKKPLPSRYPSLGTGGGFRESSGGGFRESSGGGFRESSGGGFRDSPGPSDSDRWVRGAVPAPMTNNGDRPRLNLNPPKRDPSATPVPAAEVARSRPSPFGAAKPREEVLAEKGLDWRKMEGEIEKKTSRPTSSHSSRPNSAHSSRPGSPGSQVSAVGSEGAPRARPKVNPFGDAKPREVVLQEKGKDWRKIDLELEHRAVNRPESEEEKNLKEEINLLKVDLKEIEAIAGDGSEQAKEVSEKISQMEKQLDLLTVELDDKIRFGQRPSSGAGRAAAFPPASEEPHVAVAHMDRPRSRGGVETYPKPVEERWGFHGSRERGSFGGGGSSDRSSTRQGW
In words: other fluorescence titration; 25°C; quenching of the intrinsic fluorescence of the eIFs (excitation 280 nm, emission 334 nm) by increasing VPg; 100 nM eIFs or BSA (results; 500 nM in the methods); 20 mM HEPES/KOH pH 7.6, 100 mM NaCl, 1 mM MgCl2, 1 mM DTT; complexes pre-formed for 15 min; both purified.

“viral protein genome-linked (VPg) of turnip mosaic virus”: the binding result is “binds weakly”.
